Laboratory results from PubChem BioAssay AID504834 (National Center for Advancing Translational Sciences (NCATS), 2011).
About 22,000 (6.9%) of roughly 320,000 compounds were called active. This list was built around the results that the source calls inconclusive (neither active nor inactive); the mix of calls is not that of the screen. Calls come from the whole dose curve; as a rule, active = well fitted inhibition curve with a large enough effect; inconclusive = small, poorly fitted or top-dose-only effect, or another doubt; inactive = no such curve, though single readings can be large or run the other way. A potency beside an inconclusive call is a rough fit, not a confirmed value.

Experiment: Primary qHTS for delayed death inhibitors of the malarial parasite plastid, 96 hour incubation
Conditions: P. falciparum luciferase reporter growth; series mostly up to 28.7 µM
In short: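 Luminescence readout: decreased luciferase signal marks inhibited growth of reporter-expressing P. falciparum in infected red cells (2% hematocrit, 0.05% parasitemia final), exposed to compound two generations (96 h, 37 C, 5% CO2).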
Potency is the fitted concentration of half-maximal effect.

| Structure (SMILES) | Potency |
| --- | --- |
| Cc1cc(C)n(-c2nnc(SCC(=O)NC3CCCC3)c3ccccc23)n1 | inconclusive: 13.1 µM [inhibitor, partial curve, poor fit] |
| Cc1onc(-c2ccccc2)c1C(=O)NC(=S)NNC(=O)c1cccnc1 | inconclusive: 18.5 µM [inhibitor, single point] |
| Cn1c(=O)c2c(nc(N3CCCCCC3)n2CCSc2nc3ccccc3o2)n(C)c1=O | inconclusive: 1.04 µM [inhibitor, partial curve, poor fit] |
| C=CCn1c(NCCO)nc2c1c(=O)n(C)c(=O)n2C | inconclusive: 11.7 µM [inhibitor, single point] |
| CC(C)C(=O)N1CCC2(CC1)Oc1ccc(Cl)cc1C(=O)C21CC(c2ccc(Cl)cc2)=NO1 (configuration not stated) | inconclusive: 18.5 µM [inhibitor, single point] |
| O=C(CCNS(=O)(=O)c1cccs1)N1CCN(c2ccc(F)cc2)CC1 | inactive |
| Cc1ccc(CN2CCC(c3cc(-c4cccs4)n[nH]3)CC2)cc1 | inconclusive: 10.4 µM [inhibitor, single point] |
| COc1ccc(-c2c(C#N)c(C)nc3c2C(=O)c2ccccc2-3)cc1 | inconclusive: 0.208 µM [inhibitor, full curve, poor fit] |
| Cn1c(=O)c2c(nc(N/N=C/c3ccc(OC(=O)c4ccco4)cc3)n2Cc2ccccc2Cl)n(C)c1=O | inconclusive: 18.5 µM [inhibitor, single point] |
| COc1ccc(CN2C(=O)C(CC(C)C)Nc3ncnc(N4CCN(c5ccccc5)CC4)c32)cc1 (configuration not stated) | active: 11.7 µM |
| O=C(N/N=C/c1ccc(OCc2ccccc2)cc1)c1ccncc1 | inconclusive: 8.28 µM [inhibitor, single point] |
| CCCN1CCC2(CC1)C(C#N)=C(N)Oc1c2sc2nc(C)cc(C)c12 | inconclusive: 18.5 µM [inhibitor, single point] |
| COc1cccc(CC2(CO)CCCN(CC3=Cc4cc(Cl)ccc4OC3)C2)c1 (configuration not stated) | inconclusive: 14.7 µM [inhibitor, single point] |
| Cc1ccc(NC(=O)Cn2cccc2)cc1C | inactive |
| CCc1ccc(OCC(=O)Nc2ccc(CN3CCCCC3)cc2)cc1 | inconclusive: 18.5 µM [inhibitor, single point] |
| COc1ccc(NC(=O)CN2C(=O)NC(C)(c3ccc(C)cc3)C2=O)cn1 (configuration not stated) | inconclusive: 10.4 µM [inhibitor, partial curve, poor fit] |
| COc1ccccc1N(CC(=O)N/N=C/c1ccc(OCC(=O)NCc2ccco2)cc1)S(=O)(=O)c1ccc(C)cc1 | inconclusive: 18.5 µM [inhibitor, single point] |

Rewritten with each value named: entries from further up
Cc1cc(C)n(-c2nnc(SCC(=O)NC3CCCC3)c3ccccc23)n1
  Potency: inconclusive: 13.1 µM [inhibitor, partial curve, poor fit]
CC(C)C(=O)N1CCC2(CC1)Oc1ccc(Cl)cc1C(=O)C21CC(c2ccc(Cl)cc2)=NO1 (configuration not stated)
  Potency: inconclusive: 18.5 µM [inhibitor, single point]
